Measurements from “University of Dundee, Small-Polar-MMV Screening Library” (2021), ChEMBL document CHEMBL3988442.

Mtb cholesterol medium: 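Whole-cell growth test on Mycobacterium tuberculosis, read after 4 days in a medium based on cholesterol and the lipid DPPC; the read-out is not stated. Compounds at 50 µM. Higher reads as more growth inhibition (inferred: compounds with an IC50 in retests scored well above the rest). Of about 69,000 compounds tested this way, about 370 (0.54%) reached 50% or more in at least one test.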
Mtb glucose medium: 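Whole-cell growth test on Mycobacterium tuberculosis, read after 3 days in glucose-containing 7H9 medium; the read-out is not stated. Compounds at 50 µM. Direction is inferred from retests: higher values go with more growth inhibition. Size under these conditions: about 69,000 compounds, about 760 of them at 50% or above in at least one test.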

The filed quantity is “Percent Effect” (%).
How 0% and 100% were set is not recorded. Most values in the screen are low, and negative values occur.
This is an unselected part of the compounds tested.
Two or more numbers in one place are separate tests of the same structure; such repeats can differ widely.

| structure | Mtb cholesterol medium | Mtb glucose medium |
|---|---|---|
| `CC(=O)N1CCc2c(nc(-c3ccncc3)nc2N(C)CC(O)CO)C1` (centres undefined) | -19.87 | -37.44 |
| `Cc1nc(N)sc1C(=O)N1CCCC(COc2ccc(F)cc2)C1` (centres undefined) | -8.59 & -5.618 | -15.14 & -5.683 |
| `CCNC(c1ccc(Br)cc1)c1cccnc1` (centres undefined) | 10.65 | 10.6 |
| `Cc1cc(C2CCCN(C(=O)c3c(C)noc3C)C2)n[nH]1` (centres undefined) | -1.555 | -3.421 & 53.88 |
| `O=C(Cc1ccon1)Nc1cncc(Br)c1O` | 11.69 & -6.222 | 0.7712 |
| `Cl.O=C1CC2(CCCNC2)C(=O)N1Cc1cccc(Cl)c1` (centres undefined) | 5.609 | -2.228 |
| `CC1=Nc2c(c(=O)[nH]n2C(C)C)C(c2ccc(F)c(F)c2)S1` (centres undefined) | -6.177 | 13.96 |
| `CC(=O)N1CCN(C(=O)CNc2c(C)cccc2OC(F)F)CC1` | 3.978 | 38.32 |
| `CCNC(=O)N1CCC2(CC1)CCn1c(-c3ccccc3)cnc12` | 5.489 | -12.14 & -2.613 |
| `[H][C@@]12OCCN(C(=O)c3cccc(C)n3)[C@@]1([H])CC[C@H]2OCCN(C)C` | 5.055 | 21.06 |
| `CCc1nccn1CCC(=O)N1CC(=O)N(c2ccccc2C)CC1C` (centres undefined) | 7.836 | -14.89 |
| `COc1ccc(C2CN(c3ncccn3)CCN2C(C)=O)cc1` (centres undefined) | -10.06 & 0.8366 | 3.918 |
| `[H][C@]12CNC[C@@]1(C(=O)N(C)Cc1nc(C)c[nH]1)CNC2` | -8.38 | 1.315 |
| `CCCC(=O)N1CCN(Cc2cc(-c3ccncc3)nn2C)CC1` | -30.32 | -5.362 |
| `CC(C)(C)C(=O)Cn1nc(-c2ccccc2F)ccc1=O` | -7.755 | 16.81 |
| `Cc1cnn(C2CN(CCOc3cccc(C#N)c3)C2)c1` | 14.22 | -4.24 |
| `CCOC(=O)NC(=O)CSC(C)c1ccccc1F` (centres undefined) | -7.896 | -15.48 |
| `O=S(=O)(NC1CCC2(CC1)OCCO2)c1cccc(Br)c1` | -1.784 | 1.565 & -10.8 |
| `O=C1CC2(CCN(CCO)CC2)CN1Cc1cc(F)cc(F)c1` | -13.71 | -4.897 & -2.314 |
| `CNc1ncc(C(=O)N2CCCC(CO)(CCCOC)C2)cn1` (centres undefined) | -6.602 | 4.872 & -0.1921 |
| `Nc1ncc(C(=O)N2CCC(O)(CO)CC2)c(-c2ccccc2)n1` | -12.06 | 5.517 & 20.65 |
| `[H][C@@]12C[C@H](C(=O)N3CCCCO3)CN(Cc3ccncc3)[C@]1([H])CCO2` | 18.26 | 13.61 |
| `Cc1cc(-c2cnc(C)nc2CN(C)C(=O)c2cc(C3CC3)on2)on1` | 9.673 | 17.61 |
| `Cc1ccc(N2CCCc3sc(C(=O)NCCO)nc32)nn1` | -0.1087 | 6.079 & 1.017 |
| `CCN(CC)Cc1ccc(CNC(=O)C(C)(C)n2cc(Br)cn2)cc1` | -27.92 | -67.05 |
| `CCc1nc(C2CCCN2Cc2ncc(C)c(OC)c2C)no1` (centres undefined) | 9.764 | -16 |
| `Cc1nc2c(cc1C(=O)O)CCN(CC1CC1)CC2.O=C(O)C(F)(F)F.O=C(O)C(F)(F)F` | -9.601 | 6.459 & 2.489 |
| `C=C(C)COc1cccc(C(=O)N(CC)Cc2noc(C)n2)c1` | -8.513 | -12.83 |
| `Cc1ccc(S(=O)(=O)N2CCOc3ccccc32)cc1C(N)=O` | -17.55 | -26.08 |
| `Clc1ccc(CN2CCCC(Cn3cncn3)C2)c2ncccc12` (centres undefined) | -7.428 | -5.809 |
| `O=C1NCc2ccccc2CC12CCCN(Cc1ccsc1)C2` (centres undefined) | -16.06 | 8.312 |
| `CC(C)(O)CN1CCN(C(=O)c2cc(Cl)cc3cccnc23)CC1` | -8.866 | 5.8 |
| `c1cncc(C2=NOC3(CCN(Cc4c[nH]c5ccccc45)CC3)C2)c1` | -22.16 | -1.638 |
| `COc1ccc(CCC(=O)N2CCN(c3nc(C)ns3)CC2)cc1` | 4.84 | 28.98 |
| `CCc1nnc(Nc2cccc(C3CCN(CCO)CC3)n2)s1` | 11.14 | 28.68 |
| `O=C(O)C(F)(F)F.[H][C@@]12CC(=O)N(CCN(C)C)[C@@]1([H])CCN2S(=O)(=O)c1ccccc1` | 17.92 | -12.85 |
| `NC(=O)CS(=O)(=O)Cc1cc(Cl)c2c(c1)OCCCO2` | -11.44 | -47.1 |
| `O=C(O)C(F)(F)F.O=C(O)C(F)(F)F.[H][C@]12CCC[C@@H](CN(C)C3CC3)[C@@]1([H])CN(Cc1ccc(OC)nc1)C2` | -36.99 | -27.86 & -9.591 |
| `O=C(CC1CC1)N(Cc1cccnc1)CC1CCN(C2CCCC2)CC1` | 7.881 | -4.866 |
| `O=C(O)C(F)(F)F.[H][C@@]12COC[C@]1(C(=O)NCCc1cccs1)CN(c1ncccn1)C2` | -21.14 | 9.798 |
| `CCOCc1ccccc1NC(=O)NC1CCN(C(=O)OCC)CC1` | 18.98 | -6.212 |
| `Cc1nc(CN(C)C2CCN(Cc3nc4ccccc4n3C)C2)no1` (centres undefined) | 15.95 | 16.77 |
| `Fc1cccnc1N1CCC(NCc2cccc3cn[nH]c23)C1` (centres undefined) | 1.213 | 21.67 |
| `CN1CCCC(Cc2cncc(C(=O)N3CCOCC3)c2)C1` (centres undefined) | -5.136 | 25.41 |
| `O=C(NC1CC(=O)N(C2Cc3ccccc3C2)C1)c1csnn1` (centres undefined) | -11.45 & 7.753 | -3.901 |
| `O=C(O)c1cnc(N2CCC(O)CC2)nc1COc1ccc(F)cc1` | 13.48 | 26.23 & -3.7 |
| `Cc1cc(C)c(C#N)c(N2CCC3(CCCN(CCO)C3=O)C2)n1` (centres undefined) | -24.71 | -48.29 |
| `OCCN1CCN(Cc2cc(Cl)cc3cccnc23)CC1` | -4.857 | 2.126 |
| `CN(CCc1ccccc1)c1cnn(CC(=O)N2CCSCC2)c(=O)c1` | -1.793 | 4.646 & -12.26 |
| `CC(CNC(=O)NCc1ccoc1)N1CCc2sccc2C1` (centres undefined) | 9.441 | 9.499 |
| `CSc1ccccc1C(=O)C1CCCN(Cc2ccccn2)C1` (centres undefined) | 5.443 | 14.11 |
| `CCCC(C#N)NC(=O)Cc1csc(CC)n1` (centres undefined) | -11.47 | -5.929 & -14.03 |
| `COc1ccc(CNC(=O)CCc2c(C)noc2C)cc1F` | -3.31 | 14.26 |
| `CCc1cnc(CN2CCC(N(Cc3noc(CC)n3)C(C)=O)C2)o1` (centres undefined) | -20.38 | -10.32 |
| `COc1ccccc1Oc1ncccc1CNC(=O)[C@@H](N)CCO` | -34.72 | -13.26 |
| `COc1cccc(C(=O)NCC(c2cccn2C)N2CCCC2)c1OC` (centres undefined) | -13.71 | -22.65 |
| `Cn1cnc(S(=O)(=O)N2CC3(CCN(CC4CC4)C3)C2)c1.O=C(O)C(F)(F)F.O=C(O)C(F)(F)F` | -25.73 | -16.23 |
| `O=C(O)C(F)(F)F.O=C(O)C(F)(F)F.O=C(O)C(F)(F)F.[H][C@@]12OCCC[C@]1([H])N(Cc1nccn1C)C[C@@H]2N1CCOCC1` | 6.499 | -10.79 & -22.02 |
| `OC[C@@H]1CCCN1c1ccc(-c2nc(COc3ccccc3)no2)cn1` | 12.9 | -11.13 |
| `CC(C)OCc1ncn2c1CN(Cc1nccs1)CCC2.O=C(O)C(F)(F)F` | -18.38 | -8.116 |
| `Cc1cc(CN2CCN(C(=O)CCc3cccc(F)c3F)CC2)on1` | 19.01 | 31.96 |
| `C[C@H]1CN(c2ccccn2)C[C@@]12CCN(Cc1cccnc1)C2=O.O=C(O)C(F)(F)F.O=C(O)C(F)(F)F` | 24.34 | 1.246 |
| `Cc1nc(O)cc(C2CCN(C(=O)c3ccsc3)CC2)n1` | 0.9707 | 28.04 |
| `Cc1cnn(CC(=O)NC2CCCc3cc(OC(F)F)ccc32)c1` (centres undefined) | 17.18 | 1.26 |
| `O=C(c1cscn1)N1CCc2ncc(Cn3cncn3)n2CC1` | -14.58 & -11.44 | -41.55 |
| `COc1ccc(C(=O)N2CCC(C3CCN(c4ncccn4)CC3)C2)o1` (centres undefined) | -0.9201 | 15.48 |
| `CC(C)OCCC(=O)NCCc1csc(N2CCCC2)n1` | -20.19 & -14.02 | -33.2 |
| `[H][C@]12CC(Cn3cccn3)N(C)[C@@]1([H])CCN(Cc1cnn(C)c1)C2` (some centres undefined) | -26.93 | -31.61 |
| `CSCC(=O)NC1CC(=O)N(CCc2ccccc2)C1` (centres undefined) | 0.4853 | -5.312 & 9.457 |
| `CCCN1CCCC1Cn1nc(C)cc1C` (centres undefined) | 2.89 | -14.76 |
| `Cc1c(C(C)N)cnn1-c1cccc2ccccc12` (centres undefined) | -3.106 | 9.847 |
| `Cc1ccccc1C1CN(c2cnn(C)c(=O)c2Cl)CCO1` (centres undefined) | 0.589 | 19.27 |
| `CCOCC(=O)NS(=O)(=O)c1ccc(F)cc1C(F)(F)F` | -8.956 | -23.21 |
| `O=C(O)C(F)(F)F.[H][C@]12CC[C@@]3(N=C(C)N(CC4CC4)C3=O)[C@@]1([H])CN(CC(=O)N(C)C)C2` | -3.291 | 12.54 |
| `CNC(=O)c1ccc(OC)c(NCc2noc(-c3cccs3)n2)c1` | 35.98 & 16.64 | 9.757 |
| `CCc1ncc(-c2cn(CCSc3ncn[nH]3)nn2)cn1` | 9.808 | 71.63 |
| `[H][C@@]12CCN(C(C)=O)C[C@]1([H])CCN(CCc1c[nH]cn1)C(=O)C2` | -20.6 | -27.64 & -6.883 |
| `CN(Cc1ccn[nH]1)C(=O)CCC(=O)NC1CCCC1` | 7.948 | -13.26 |
| `CCC(CC)C(=O)NCc1c(C)nn(C)c1N1CCCN(C)CC1` | -28.09 | -23.42 |
| `Cn1ncc(C(=O)N2CCOCC2)c1Cl` | -9.343 | -22.01 |
| `Cc1ccc(C(=O)N2CCc3ccc(=O)n(CCN(C)C)c3CC2)o1.O=C(O)C(F)(F)F` | -5.91 | -12.88 |

Some entries from above, unchanged:

| structure | Mtb cholesterol medium | Mtb glucose medium |
|---|---|---|
| `CNC(=O)c1ccc(OC)c(NCc2noc(-c3cccs3)n2)c1` | 35.98 & 16.64 | 9.757 |
| `Cc1cc(CN2CCN(C(=O)CCc3cccc(F)c3F)CC2)on1` | 19.01 | 31.96 |
| `Cc1c(C(C)N)cnn1-c1cccc2ccccc12` (centres undefined) | -3.106 | 9.847 |
| `Clc1ccc(CN2CCCC(Cn3cncn3)C2)c2ncccc12` (centres undefined) | -7.428 | -5.809 |
| `Cn1ncc(C(=O)N2CCOCC2)c1Cl` | -9.343 | -22.01 |
| `CCOCC(=O)NS(=O)(=O)c1ccc(F)cc1C(F)(F)F` | -8.956 | -23.21 |